# Data published in article PMC11033335.
# Sequences of proteins named here, by UniProt entry; tags and fusion partners are left off.
# UniProt P16455: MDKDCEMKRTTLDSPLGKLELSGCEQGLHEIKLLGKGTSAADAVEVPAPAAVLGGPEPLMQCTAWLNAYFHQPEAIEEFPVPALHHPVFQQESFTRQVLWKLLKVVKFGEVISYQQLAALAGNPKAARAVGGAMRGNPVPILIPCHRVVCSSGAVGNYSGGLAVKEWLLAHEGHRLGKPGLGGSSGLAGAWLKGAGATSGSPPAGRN
# These are yes or no findings as the source states them, for the method shown. In cells and extracts the contact can be indirect. Some binding calls cover weakened binding; strength is not graded here.
# B1: endogenous USP19 (ubiquitin-specific protease USP19) (enzyme, UniProt O94966 1-1318)
# chain: MSGGASATGPRRGPPGLEDTTSKKKQKDRANQESKDGDPRKETGSRYVAQAGLEPLASGDPSASASHAAGITGSRHRTRLFFPSSSGSASTPQEEQTKEGACEDPHDLLATPTPELLLDWRQSAEEVIVKLRVGVGPLQLEDVDAAFTDTDCVVRFAGGQQWGGVFYAEIKSSCAKVQTRKGSLLHLTLPKKVPMLTWPSLLVEADEQLCIPPLNSQTCLLGSEENLAPLAGEKAVPPGNDPVSPAMVRSRNPGKDDCAKEEMAVAADAATLVDEPESMVNLAFVKNDSYEKGPDSVVVHVYVKEICRDTSRVLFREQDFTLIFQTRDGNFLRLHPGCGPHTTFRWQVKLRNLIEPEQCTFCFTASRIDICLRKRQSQRWGGLEAPAARVGGAKVAVPTGPTPLDSTPPGGAPHPLTGQEEARAVEKDKSKARSEDTGLDSVATRTPMEHVTPKPETHLASPKPTCMVPPMPHSPVSGDSVEEEEEEEKKVCLPGFTGLVNLGNTCFMNSVIQSLSNTRELRDFFHDRSFEAEINYNNPLGTGGRLAIGFAVLLRALWKGTHHAFQPSKLKAIVASKASQFTGYAQHDAQEFMAFLLDGLHEDLNRIQNKPYTETVDSDGRPDEVVAEEAWQRHKMRNDSFIVDLFQGQYKSKLVCPVCAKVSITFDPFLYLPVPLPQKQKVLPVFYFAREPHSKPIKFLVSVSKENSTASEVLDSLSQSVHVKPENLRLAEVIKNRFHRVFLPSHSLDTVSPSDTLLCFELLSSELAKERVVVLEVQQRPQVPSVPISKCAACQRKQQSEDEKLKRCTRCYRVGYCNQLCQKTHWPDHKGLCRPENIGYPFLVSVPASRLTYARLAQLLEGYARYSVSVFQPPFQPGRMALESQSPGCTTLLSTGSLEAGDSERDPIQPPELQLVTPMAEGDTGLPRVWAAPDRGPVPSTSGISSEMLASGPIEVGSLPAGERVSRPEAAVPGYQHPSEAMNAHTPQFFIYKIDSSNREQRLEDKGDTPLELGDDCSLALVWRNNERLQEFVLVASKELECAEDPGSAGEAARAGHFTLDQCLNLFTRPEVLAPEEAWYCPQCKQHREASKQLLLWRLPNVLIVQLKRFSFRSFIWRDKINDLVEFPVRNLDLSKFCIGQKEEQLPSYDLYAVINHYGGMIGGHYTACARLPNDRSSQRSDVGWRLFDDSTVTTVDESQVVTRYAYVLFYRRRNSPVERPPRAGHSEHHPDLGPAAEAAASQASRIWQELEAEEEPVPEGSGPLGPWGPQDWVGPLPRGPTTPDEGCLRYFVLGTVAALVALVLNVFYPLVSQSRWR
# Biological target: FLAG-tagged MGMT (O6-methylguanine-DNA methyltransferase) (human) (UniProt P16455)
# Assay: co-IP; cells transfected with FLAG-MGMT; FLAG-MGMT purified on anti-FLAG-agarose; coprecipitating endogenous USP19 detected by anti-USP19 antibody
binder,measurement,value
B1,binding,binds
